Results as given in patent US5470859A (priority 1989, dated 1995).
Counter-ions that a name gives are not always drawn. Like-named read-outs stand apart in the source and are kept apart here. At least one read-out could not be matched to a standard name with certainty.

Columns and labels:
muscarinic receptors [1] = assay: Radio ligand binding: displacement of the muscarinic agonist 3H-Oxotremorine-M (3H-OXO-M), rat cerebral cortex; parameters: species or system Hooded Lister rats; conditions: 2 nM 3H-OXO-M, rat cerebral cortex membranes, 2 mM magnesium chloride, 37° C., 30 min
muscarinic receptors [2] = assay type: binding, Hooded Lister rats; conditions: 0.27 nM 3H-QNB, rat cerebral cortex membranes, 37° C., 30 min

C(=C1/CN2CCC1CC2)/c1nccs1 [Example E8, (±) Z 3-([1,3-Thiazol-2-yl]methin)-1-azabicyclo[2.2.2]octane oxalate salt]
IC50 (muscarinic receptors [1]): 0.16 µM | IC50 (muscarinic receptors [2]): 1.6 µM
